Source: paper doi:10.1101/2021.03.28.437237

Sequences of proteins named here, by UniProt entry; tags and fusion partners are left off.
UniProt Q92793: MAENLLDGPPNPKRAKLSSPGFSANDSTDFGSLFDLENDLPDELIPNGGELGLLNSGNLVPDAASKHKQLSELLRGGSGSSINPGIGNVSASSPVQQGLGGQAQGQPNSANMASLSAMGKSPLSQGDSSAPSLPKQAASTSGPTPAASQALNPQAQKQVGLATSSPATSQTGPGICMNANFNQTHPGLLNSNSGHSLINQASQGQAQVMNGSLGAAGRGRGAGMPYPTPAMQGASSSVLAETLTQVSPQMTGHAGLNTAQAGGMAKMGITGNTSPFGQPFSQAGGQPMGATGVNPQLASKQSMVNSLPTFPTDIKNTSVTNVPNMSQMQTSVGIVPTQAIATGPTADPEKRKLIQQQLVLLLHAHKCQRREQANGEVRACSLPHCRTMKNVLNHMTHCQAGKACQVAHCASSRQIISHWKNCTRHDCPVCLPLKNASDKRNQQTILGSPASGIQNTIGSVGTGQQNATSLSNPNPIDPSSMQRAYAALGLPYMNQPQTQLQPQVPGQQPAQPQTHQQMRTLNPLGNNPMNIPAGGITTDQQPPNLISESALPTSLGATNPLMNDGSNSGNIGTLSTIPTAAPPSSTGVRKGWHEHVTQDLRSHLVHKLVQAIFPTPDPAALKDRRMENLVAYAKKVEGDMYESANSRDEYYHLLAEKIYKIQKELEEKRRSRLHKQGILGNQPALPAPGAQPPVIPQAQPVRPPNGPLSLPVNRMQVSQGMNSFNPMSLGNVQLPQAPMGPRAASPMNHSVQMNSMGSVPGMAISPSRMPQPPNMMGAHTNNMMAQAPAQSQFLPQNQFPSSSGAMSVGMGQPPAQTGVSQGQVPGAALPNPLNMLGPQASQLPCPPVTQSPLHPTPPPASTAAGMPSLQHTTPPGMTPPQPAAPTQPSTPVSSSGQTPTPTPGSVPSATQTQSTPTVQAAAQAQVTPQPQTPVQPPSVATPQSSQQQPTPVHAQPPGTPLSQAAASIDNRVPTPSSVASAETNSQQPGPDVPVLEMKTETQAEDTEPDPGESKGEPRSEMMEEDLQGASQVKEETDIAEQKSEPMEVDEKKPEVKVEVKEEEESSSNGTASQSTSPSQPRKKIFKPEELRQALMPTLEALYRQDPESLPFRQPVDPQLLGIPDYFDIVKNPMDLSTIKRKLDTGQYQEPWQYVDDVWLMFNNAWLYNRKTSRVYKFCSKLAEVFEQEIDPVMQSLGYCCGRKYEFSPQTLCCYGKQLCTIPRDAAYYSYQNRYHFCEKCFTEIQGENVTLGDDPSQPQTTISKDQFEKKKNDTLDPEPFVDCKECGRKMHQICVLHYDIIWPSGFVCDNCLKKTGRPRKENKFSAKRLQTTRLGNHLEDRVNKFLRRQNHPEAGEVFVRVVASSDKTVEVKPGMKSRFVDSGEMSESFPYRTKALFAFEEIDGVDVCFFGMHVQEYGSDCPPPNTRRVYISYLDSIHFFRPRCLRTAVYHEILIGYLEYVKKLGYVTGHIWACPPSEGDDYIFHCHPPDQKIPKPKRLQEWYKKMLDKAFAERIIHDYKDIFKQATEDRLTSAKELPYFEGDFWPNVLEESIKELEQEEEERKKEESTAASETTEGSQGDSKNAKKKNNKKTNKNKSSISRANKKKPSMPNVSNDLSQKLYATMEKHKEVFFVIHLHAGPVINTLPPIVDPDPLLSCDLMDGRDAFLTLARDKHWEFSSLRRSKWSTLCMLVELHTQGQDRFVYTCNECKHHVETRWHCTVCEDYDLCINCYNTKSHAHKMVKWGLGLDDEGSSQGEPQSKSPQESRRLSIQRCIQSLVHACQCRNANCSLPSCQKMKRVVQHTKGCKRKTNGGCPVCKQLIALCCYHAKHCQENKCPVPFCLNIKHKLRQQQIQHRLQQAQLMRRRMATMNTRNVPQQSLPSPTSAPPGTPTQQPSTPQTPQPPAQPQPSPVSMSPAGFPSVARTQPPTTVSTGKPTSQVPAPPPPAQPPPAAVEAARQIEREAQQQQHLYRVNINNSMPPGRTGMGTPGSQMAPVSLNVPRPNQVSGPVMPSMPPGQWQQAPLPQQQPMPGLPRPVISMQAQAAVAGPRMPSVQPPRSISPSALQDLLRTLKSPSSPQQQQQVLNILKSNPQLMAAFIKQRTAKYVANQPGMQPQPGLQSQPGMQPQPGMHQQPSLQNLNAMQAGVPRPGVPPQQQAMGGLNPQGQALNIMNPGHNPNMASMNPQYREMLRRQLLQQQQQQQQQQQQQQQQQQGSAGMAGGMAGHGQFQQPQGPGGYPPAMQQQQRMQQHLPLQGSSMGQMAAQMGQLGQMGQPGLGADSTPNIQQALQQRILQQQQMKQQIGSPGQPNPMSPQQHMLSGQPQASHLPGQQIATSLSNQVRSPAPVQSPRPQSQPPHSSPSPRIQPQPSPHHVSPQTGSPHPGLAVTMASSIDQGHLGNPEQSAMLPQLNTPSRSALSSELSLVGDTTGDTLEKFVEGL
UniProt P67809: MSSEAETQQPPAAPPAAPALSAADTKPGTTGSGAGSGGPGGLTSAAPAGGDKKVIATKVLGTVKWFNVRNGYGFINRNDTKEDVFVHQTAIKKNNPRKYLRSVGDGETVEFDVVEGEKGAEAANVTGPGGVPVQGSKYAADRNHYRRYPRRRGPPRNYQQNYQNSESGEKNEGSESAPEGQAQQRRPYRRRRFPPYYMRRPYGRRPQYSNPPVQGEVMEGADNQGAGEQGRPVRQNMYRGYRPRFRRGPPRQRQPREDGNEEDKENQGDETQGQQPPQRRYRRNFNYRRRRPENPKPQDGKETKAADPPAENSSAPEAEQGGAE

Target: T1, wild-type FOXN1 (human), FLAG-tagged (human) (UniProt O15353)
T1 sequence: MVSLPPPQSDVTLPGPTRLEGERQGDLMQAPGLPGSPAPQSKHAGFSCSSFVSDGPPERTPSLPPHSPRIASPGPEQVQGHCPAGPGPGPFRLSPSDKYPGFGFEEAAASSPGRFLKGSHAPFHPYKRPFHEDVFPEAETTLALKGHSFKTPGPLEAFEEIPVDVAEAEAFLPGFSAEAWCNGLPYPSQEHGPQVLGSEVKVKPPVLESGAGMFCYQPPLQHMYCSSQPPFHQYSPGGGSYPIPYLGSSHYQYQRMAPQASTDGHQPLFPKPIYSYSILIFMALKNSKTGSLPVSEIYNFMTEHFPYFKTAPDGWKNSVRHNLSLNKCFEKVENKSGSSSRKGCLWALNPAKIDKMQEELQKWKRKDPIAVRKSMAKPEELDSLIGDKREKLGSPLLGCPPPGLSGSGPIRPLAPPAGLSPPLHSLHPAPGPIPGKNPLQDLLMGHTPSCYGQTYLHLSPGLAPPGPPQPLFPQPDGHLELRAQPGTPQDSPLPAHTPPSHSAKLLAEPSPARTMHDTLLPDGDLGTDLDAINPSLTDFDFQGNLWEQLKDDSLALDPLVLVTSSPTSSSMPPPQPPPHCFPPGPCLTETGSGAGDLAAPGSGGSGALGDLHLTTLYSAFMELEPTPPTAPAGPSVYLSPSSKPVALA
Assay: affinity purification with mass spectrometry

Row | binding | Substance
1 | binds | Creb Binding Protein (CBP) (from UniProt Q92793 1-2442)
2 | binds | Y-box binding protein 1 (YBX1) (from UniProt P67809 1-324)

These are yes or no findings as the source states them, for the method shown. Binding seen in cells or lysates may run through a third protein. Here binding means that the protein was enriched with, or labelled near, the bait; the list need not be complete. Where a sequence is shown, tags or fusion partners need not be part of it.
